Laboratory results reported in publication PMC5836524.
Changes are numbered by the printed parent chain. Numbers in names are those of the source. No constants are given. Whether binding was seen depends on the method and setting. Binding seen in cells or lysates may run through a third protein. Some binding calls cover weakened binding; strength is not graded here. Tags and fused reporters may be left off the sequences shown.

Sequences of proteins named here, by UniProt entry; tags and fusion partners are left off. Residues count along the entry.
UniProt Q00610, residues 2-579: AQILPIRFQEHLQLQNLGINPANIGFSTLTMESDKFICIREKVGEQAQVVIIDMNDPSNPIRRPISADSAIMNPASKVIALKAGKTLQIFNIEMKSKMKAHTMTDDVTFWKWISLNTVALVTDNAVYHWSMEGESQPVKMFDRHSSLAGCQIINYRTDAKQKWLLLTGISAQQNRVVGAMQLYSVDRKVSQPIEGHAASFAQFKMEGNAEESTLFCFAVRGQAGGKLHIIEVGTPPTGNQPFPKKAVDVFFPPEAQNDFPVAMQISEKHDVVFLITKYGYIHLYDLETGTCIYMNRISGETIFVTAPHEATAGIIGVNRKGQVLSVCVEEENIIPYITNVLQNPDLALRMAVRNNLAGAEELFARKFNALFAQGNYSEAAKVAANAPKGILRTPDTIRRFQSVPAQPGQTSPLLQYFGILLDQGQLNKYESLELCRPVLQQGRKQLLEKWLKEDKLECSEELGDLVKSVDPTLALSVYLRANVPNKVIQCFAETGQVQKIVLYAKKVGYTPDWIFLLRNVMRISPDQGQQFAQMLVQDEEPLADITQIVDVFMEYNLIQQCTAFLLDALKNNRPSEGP
GST-intersectin-1 EH1 (aa 14-108) (Q15811, residues 14-108): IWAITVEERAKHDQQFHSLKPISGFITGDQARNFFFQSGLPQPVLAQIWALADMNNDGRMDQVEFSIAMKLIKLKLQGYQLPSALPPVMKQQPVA
GST-intersectin-1 EH2 (aa 214-309) (Q15811, residues 214-309): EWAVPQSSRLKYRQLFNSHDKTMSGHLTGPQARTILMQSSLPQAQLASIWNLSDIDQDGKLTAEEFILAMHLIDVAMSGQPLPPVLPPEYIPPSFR
UniProt P29323, residues 19-1055: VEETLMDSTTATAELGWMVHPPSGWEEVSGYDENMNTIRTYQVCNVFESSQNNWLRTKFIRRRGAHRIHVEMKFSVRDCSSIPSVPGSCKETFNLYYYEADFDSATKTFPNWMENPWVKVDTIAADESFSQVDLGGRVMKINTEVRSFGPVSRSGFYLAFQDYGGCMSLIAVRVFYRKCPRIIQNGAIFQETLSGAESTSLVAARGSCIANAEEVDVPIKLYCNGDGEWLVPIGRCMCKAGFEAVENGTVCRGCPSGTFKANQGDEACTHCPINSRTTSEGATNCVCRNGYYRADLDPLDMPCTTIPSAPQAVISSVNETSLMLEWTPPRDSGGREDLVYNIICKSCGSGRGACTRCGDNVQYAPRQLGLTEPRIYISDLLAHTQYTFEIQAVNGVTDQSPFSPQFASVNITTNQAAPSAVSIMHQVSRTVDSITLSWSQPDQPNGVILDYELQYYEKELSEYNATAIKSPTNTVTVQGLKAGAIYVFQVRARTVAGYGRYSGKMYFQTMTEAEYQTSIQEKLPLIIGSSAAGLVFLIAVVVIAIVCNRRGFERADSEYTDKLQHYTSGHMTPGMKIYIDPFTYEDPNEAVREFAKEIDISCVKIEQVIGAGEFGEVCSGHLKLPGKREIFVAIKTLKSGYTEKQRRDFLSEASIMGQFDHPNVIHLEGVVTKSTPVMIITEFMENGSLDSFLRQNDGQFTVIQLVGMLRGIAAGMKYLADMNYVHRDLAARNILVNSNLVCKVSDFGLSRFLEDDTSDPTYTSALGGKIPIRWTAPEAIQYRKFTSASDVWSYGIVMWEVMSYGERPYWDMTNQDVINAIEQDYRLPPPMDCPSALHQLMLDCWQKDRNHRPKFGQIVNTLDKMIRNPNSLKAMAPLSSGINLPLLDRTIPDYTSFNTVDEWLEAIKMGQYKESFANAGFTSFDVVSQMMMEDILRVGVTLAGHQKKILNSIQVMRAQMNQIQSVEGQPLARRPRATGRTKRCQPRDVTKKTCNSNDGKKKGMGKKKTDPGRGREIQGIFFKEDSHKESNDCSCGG
UniProt P62944, residues 616-937: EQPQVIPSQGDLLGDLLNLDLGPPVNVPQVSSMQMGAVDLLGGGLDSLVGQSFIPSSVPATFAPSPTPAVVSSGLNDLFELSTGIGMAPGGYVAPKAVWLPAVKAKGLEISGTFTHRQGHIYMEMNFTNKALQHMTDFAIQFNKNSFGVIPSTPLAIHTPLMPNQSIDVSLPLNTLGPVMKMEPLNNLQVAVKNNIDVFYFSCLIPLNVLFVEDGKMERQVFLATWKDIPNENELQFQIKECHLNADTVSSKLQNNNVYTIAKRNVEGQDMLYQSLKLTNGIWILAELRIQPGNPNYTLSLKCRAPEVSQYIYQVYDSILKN

Experiments:
[1] = biological target: GST-clathrin heavy chain terminal domain (aa 2-579) (human) (UniProt Q00610); assay: pull-down; GST-clathrin heavy chain domains on beads incubated with detergent extracts of Sf9 cells expressing full-length His-Eps15R; immunoblot for the His tag; only the target purified
[2] = biological target: T1, GST-Eps15 EH2 (aa 121-215) (UniProt P42566); assay: pull-down; GST-tagged EH domains immobilised on beads, incubated with lysates from EGFP-Numb expressing HEK293T cells; Western blot; only the target purified
T1 sequence: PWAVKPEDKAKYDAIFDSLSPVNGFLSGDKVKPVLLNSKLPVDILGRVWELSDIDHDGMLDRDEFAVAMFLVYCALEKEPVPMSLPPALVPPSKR

[3] = biological target: GST-intersectin-1 EH1 (aa 14-108) (UniProt Q15811); assay: as above
[4] = biological target: GST-intersectin-1 EH2 (aa 214-309) (UniProt Q15811); assay: as above
[5] = biological target: T2, GST-intersectin-2 EH1 (aa 14-108) (UniProt Q9NZM3); assay: as above
T2 sequence: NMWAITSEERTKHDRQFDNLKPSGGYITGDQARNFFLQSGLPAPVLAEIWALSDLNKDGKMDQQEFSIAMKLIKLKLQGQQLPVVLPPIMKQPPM

[6] = biological target: T3, GST-intersectin-2 EH2 (aa 236-331) (UniProt Q9NZM3); assay: as above
T3 sequence: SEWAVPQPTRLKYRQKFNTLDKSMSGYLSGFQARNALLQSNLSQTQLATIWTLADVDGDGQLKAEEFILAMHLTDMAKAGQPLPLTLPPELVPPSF

[7] = biological target: Flag-EphB2 (UniProt P29323); assay: co-IP; HEK293T cells expressing Flag-EphB2, EGFP-Numb and myc-Eps15R; cells stimulated with 1 μg/mL pre-clustered ephrinB1-Fc for 20 min at 37°C before lysis; Flag antibody for immunoprecipitation; Western blot
[8] = biological target: GST-AP2-β2-appendage with hinge (aa 616-937) (rat) (UniProt P62944); assay: pull-down; GST-AP2-β-appendage with hinge on beads incubated with lysates from HeLa cells expressing EGFP-Eps15R wild type or the F703A, F722A, F728A mutant; clathrin and EGFP immunoblotting; only the target purified

B1: full-length His-Eps15R (protein, UniProt Q60902 1-907)
chain: MAAPLVPLSQQIPGGNPLYESYYKQVDPAYTGRVGASEAALFLKKSGLSDIILGKIWDLADPEGKGFLDKQGFYVALRLVACAQSGHEVTLSSLSLTMPPPKFHDTSSPLMATQSSAETHWAVRVEEKAKFDGIFESLLPVNGLLSGDKVKPVLMNSKLPLDVLGRVWDLSDIDKDGHLDRDEFAVAMHLVYRALEKEPVPSILPPPLIPPSKRKKTVFAGAVPVLPASPPPKDSLRSTPSHGSVSSLNSTGSLSPKHSVKQPPVAWVVPVADKMRFDEIFLKTDLDLDGYVSGQEVKEIFMHSGLTQNLLAHIWALADTRQTGKLSKEQFALAMYFIQQKVSKGIDPPQVLSPDMVPPSERGTPIPDSSSTLASGEFTGVKELDDISQEIAQLQREKYSLEQDIREKEEAIRQKTSEVQELQNDLDRETSSLQELEAQKQDAQDRLDEMDQQKAKLRDMLSDVRQKCQDETQTISSLKTQIQSQESDLKSQEDDLNRAKSELNRLQQEETQLEQSIQAGRAQLETILRSLKCTQDDINQARSKLSQLQESHLEAHRSLEQYDQVPDGVSGTSLPDLATLNEGILLAERGGFGAMDDPFKNKALLFSNNSQELHPDPFQAEDPFKSDPFKGADPFKGDPFQSDPFSEQQTAATDPFGGDPFKESDPFHSSSSDDFFKKQTKNDPFTSDPFTKNPSLPSKLDPFESSDPFSSSSISSKGSDPFGTLDPFGSSSFSSAEGFADFSQMSKPPPSGPFSSSLGGTGFSDDPFKSKQDTPALPPKKPAPPRPKPPSGQSTPVSQLGSSDFPESPDPFQPLGADSGDPFQNKKGFGDPFSGKDPFAPSSSAKPPKTSSSGFADFTSFGNEEQQLAWAKRESEKAEQERLARLRRQEQEDLELAIALSKADMPA
- binding [1]: binds

B2: EGFP-Numb (protein, UniProt P49757 1-651)
chain: MNKLRQSFRRKKDVYVPEASRPHQWQTDEEGVRTGKCSFPVKYLGHVEVDESRGMHICEDAVKRLKAERKFFKGFFGKTGKKAVKAVLWVSADGLRVVDEKTKDLIVDQTIEKVSFCAPDRNFDRAFSYICRDGTTRRWICHCFMAVKDTGERLSHAVGCAFAACLERKQKREKECGVTATFDASRTTFTREGSFRVTTATEQAEREEIMKQMQDAKKAETDKIVVGSSVAPGNTAPSPSSPTSPTSDATTSLEMNNPHAIPRRHAPIEQLARQGSFRGFPALSQKMSPFKRQLSLRINELPSTMQRKTDFPIKNAVPEVEGEAESISSLCSQITNAFSTPEDPFSSAPMTKPVTVVAPQSPTFQANGTDSAFHVLAKPAHTALAPVAMPVRETNPWAHAPDAANKEIAATCSGTEWGQSSGAASPGLFQAGHRRTPSEADRWLEEVSKSVRAQQPQASAAPLQPVLQPPPPTAISQPASPFQGNAFLTSQPVPVGVVPALQPAFVPAQSYPVANGMPYPAPNVPVVGITPSQMVANVFGTAGHPQAAHPHQSPSLVRQQTFPHYEASSATTSPFFKPPAQHLNGSAAFNGVDDGRLASADRHTEVPTGTCPVDPFEAQWAALENKSKQRTNPSPTNPFSSDLQKTFEIEL
- binding [2]: binds
- binding [3]: no binding
- binding [4]: no binding
- binding [5]: no binding
- binding [6]: no binding
- binding [7]: binds

B3: EGFP-Eps15R wild type, full-length (aa 1-907) (protein, UniProt Q60902 1-907)
chain: B1 chain
- binding [8]: binds

B4: EGFP-Eps15R F703A/F722A/F728A triple mutant (protein, UniProt Q60902 1-907)
chain: B1 chain with F703A, F722A, F728A
- binding [8]: binds
